# Test results taken from the supplement of paper PMC8728848.
# This is one part of the list.
# B1: Flo10 (Saccharomyces cerevisiae), P36170 (protein)
# chain: MPVAARYIFLTGLFLLSVANVALGTTEACLPAGEKKNGMTINFYQYSLKDSSTYSNPSYMAYGYADAEKLGSVSGQTKLSIDYSIPCNGASDTCACSDDDATEYSASQVVPVKRGVKLCSDNTTLSSKTEKRENDDCDQGAAYWSSDLFGFYTTPTNVTVEMTGYFLPPKTGTYTFGFATVDDSAILSVGGNVAFECCKQEQPPITSTDFTINGIKPWNADAPTDIKGSTYMYAGYYYPIKIVYSNAVSWGTLPVSVVLPDGTEVNDDFEGYVFSFDDNATQAHCSVPNPAEHARTCVSSATSSWSSSEVCTECTETESTSYVTPYVTSSSWSSSEVCTECTETESTSTSTPYVTSSSSSSSEVCTECTETESTSYVTPYVSSSTAAANYTSSFSSSSEVCTECTETESTSTSTPYVTSSSWSSSEVCTECTETESTSYVTPYVSSSTAAANYTSSFSSSSEVCTECTETESTSTSTPYVTSSSSSSSEVCTECTETESTSYVTPYVSSSTAAANYTSSFSSSSEVCTECTETESTSTSTPYVTSSSWSSSEVCTECTETESTSYVTPYVSSSTAAANYTSSFSSSSEVCTECTETESTSTSTPYATSSTGTATSFTASTSNTMTSLVQTDTTVSFSLSSTVSEHTNAPTSSVESNASTFISSNKGSVKSYVTSSIHSITPMYPSNQTVTSSSVVSTPITSESSESSASVTILPSTITSEFKPSTMKTKVVSISSSPTNLITSYDTTSKDSTVGSSTSSVSLISSISLPSSYSASSEQIFHSSIVSSNGQALTSFSSTKVSSSESSESHRTSPTTSSESGIKSSGVEIESTSTSSFSFHETSTASTSVQISSQFVTPSSPISTVAPRSTGLNSQTESTNSSKETMSSENSASVMPSSSATSPKTGKVTSDETSSGFSRDRTTVYRMTSETPSTNEQTTLITVSSCESNSCSNTVSSAVVSTATTTINGITTEYTTWCPLSATELTTVSKLESEEKTTLITVTSCESGVCSETASPAIVSTATATVNDVVTVYSTWSPQATNKLAVSSDIENSASKASFVSEAAETKSISRNNNFVPTSGTTSIETHTTTTSNASENSDNVSASEAVSSKSVTNPVLISVSQQPRGTPASSMIGSSTASLEMSSYLGIANHLLTNSGISIFIASLLLAIV
# Tests used:
# Assay in all cases: glycan array binding signal (z-score within array); higher = stronger binding
# Conditions in all cases: glycan notation: IUPAC condensed, linker removed
# [1] = biological target: Neu5Ac(a2-3)Gal(b1-3)GlcNAc(b1-3)Gal(b1-3)GlcNAc
# Outline: (§1)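 Glycan array data came from 3228 arrays in the Consortium for Functional Glycomics database, and only arrays with an available protein sequence were kept. Glycan names were put into IUPAC-condensed notation, and columns mapping to the same glycan were averaged. The binding signal is a within-array Z-score, averaged across arrays of one protein sequence run at different concentrations or buffers and across linkers. A negative Z-score can be read as non-binding.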
# [2] = biological target: Neu5Ac(a2-3)Gal(b1-3)GlcNAc(b1-3)Gal(b1-4)GlcNAc
# Outline: as §1
# [3] = biological target: Neu5Ac(a2-3)Gal(b1-3)GlcNAc(b1-3)GalNAc
# Outline: as §1
# [4] = biological target: Neu5Ac(a2-3)Gal(b1-3)GlcNAc6S
# Outline: as §1
# [5] = biological target: Neu5Ac(a2-3)Gal(b1-3)[Fuc(a1-4)]GlcNAc
# Outline: as §1
# [6] = biological target: Neu5Ac(a2-3)Gal(b1-3)[Fuc(a1-4)]GlcNAc(b1-3)Gal(b1-3)[Fuc(a1-4)]GlcNAc
# Outline: as §1
# [7] = biological target: Neu5Ac(a2-3)Gal(b1-3)[Fuc(a1-4)]GlcNAc(b1-3)Gal(b1-4)[Fuc(a1-3)]GlcNAc
# Outline: as §1
# [8] = biological target: Neu5Ac(a2-3)Gal(b1-3)[Neu5Ac(a2-3)Gal(b1-4)]GlcNAc
# Outline: as §1
# [9] = biological target: Neu5Ac(a2-3)Gal(b1-3)[Neu5Ac(a2-6)]GalNAc
# Outline: as §1
# Neu5Ac(a2-3)Gal(b1-4)Glc = biological target: Neu5Ac(a2-3)Gal(b1-4)Glc
# Outline: as §1
# [10] = biological target: Neu5Ac(a2-3)Gal(b1-4)GlcNAc
# Outline: as §1
# [11] = biological target: Neu5Ac(a2-3)Gal(b1-4)GlcNAc(b1-2)Man(a1-3)[GlcNAc(b1-2)Man(b1-4)GlcNAc(b1-2)Man(a1-6)]Man(b1-4)GlcNAc(b1-4)GlcNAc
# Outline: as §1
# [12] = biological target: Neu5Ac(a2-3)Gal(b1-4)GlcNAc(b1-2)Man(a1-3)[Neu5Ac(a2-6)Gal(b1-4)GlcNAc(b1-2)Man(a1-6)]Man(b1-4)GlcNAc(b1-4)GlcNAc
# Outline: as §1
# [13] = biological target: Neu5Ac(a2-3)Gal(b1-4)GlcNAc(b1-3)Gal(b1-3)GlcNAc
# Outline: as §1
# [14] = biological target: Neu5Ac(a2-3)Gal(b1-4)GlcNAc(b1-3)Gal(b1-4)GlcNAc
# Outline: as §1
# [15] = biological target: Neu5Ac(a2-3)Gal(b1-4)GlcNAc(b1-3)Gal(b1-4)GlcNAc(b1-3)Gal(b1-4)GlcNAc
# Outline: as §1
# [16] = biological target: Neu5Ac(a2-3)Gal(b1-4)GlcNAc(b1-3)Gal(b1-4)[Fuc(a1-3)]GlcNAc
# Outline: as §1
# [17] = biological target: Neu5Ac(a2-3)Gal(b1-4)GlcNAc(b1-3)GalNAc
# Outline: as §1
# [18] = biological target: Neu5Ac(a2-3)Gal(b1-4)GlcNAc(b1-6)[Gal(b1-3)]GalNAc
# Outline: as §1
# [19] = biological target: Neu5Ac(a2-3)Gal(b1-4)GlcNAc(b1-6)[Neu5Ac(a2-3)Gal(b1-3)]GalNAc
# Outline: as §1
# [20] = biological target: Neu5Ac(a2-3)Gal(b1-4)GlcNAc6S
# Outline: as §1
# [21] = biological target: Neu5Ac(a2-3)Gal(b1-4)[Fuc(a1-3)]GlcNAc
# Outline: as §1
# [22] = biological target: Neu5Ac(a2-3)Gal(b1-4)[Fuc(a1-3)]GlcNAc(b1-3)Gal
# Outline: as §1
# [23] = biological target: Neu5Ac(a2-3)Gal(b1-4)[Fuc(a1-3)]GlcNAc(b1-3)Gal(b1-4)GlcNAc
# Outline: as §1
# [24] = biological target: Neu5Ac(a2-3)Gal(b1-4)[Fuc(a1-3)]GlcNAc(b1-3)Gal(b1-4)[Fuc(a1-3)]GlcNAc(b1-3)Gal(b1-4)[Fuc(a1-3)]GlcNAc
# Outline: as §1
# [25] = biological target: Neu5Ac(a2-3)Gal(b1-4)[Fuc(a1-3)]GlcNAc(b1-3)GalNAc
# Outline: as §1
# [26] = biological target: Neu5Ac(a2-3)Gal(b1-4)[Fuc(a1-3)]GlcNAc(b1-6)[Gal(b1-3)]GalNAc
# Outline: as §1
# [27] = biological target: Neu5Ac(a2-3)Gal(b1-4)[Fuc(a1-3)]GlcNAc(b1-6)[Neu5Ac(a2-3)Gal(b1-3)]GalNAc
# Outline: as §1
# [28] = biological target: Neu5Ac(a2-3)Gal(b1-4)[Fuc(a1-3)]GlcNAc6S
# Outline: as §1
# [29] = biological target: Neu5Ac(a2-3)Gal6S(b1-4)GlcNAc
# Outline: as §1
# [30] = biological target: Neu5Ac(a2-3)Gal6S(b1-4)[Fuc(a1-3)]GlcNAc
# Outline: as §1
# Neu5Ac(a2-3)GalNAc = biological target: Neu5Ac(a2-3)GalNAc
# Outline: as §1
# [31] = biological target: Neu5Ac(a2-3)GalNAc(b1-4)GlcNAc
# Outline: as §1
# [32] = biological target: Neu5Ac(a2-3)[GalNAc(b1-4)]Gal(b1-4)Glc
# Outline: as §1
# [33] = biological target: Neu5Ac(a2-3)[GalNAc(b1-4)]Gal(b1-4)GlcNAc
# Outline: as §1
# [34] = biological target: Neu5Ac(a2-3)[GalNAc(b1-4)]Gal(b1-4)GlcNAc(b1-3)GalNAc
# Outline: as §1
# [35] = biological target: Neu5Ac(a2-3)[Neu5Ac(a2-6)]GalNAc
# Outline: as §1
# Neu5Ac(a2-6)Gal = biological target: Neu5Ac(a2-6)Gal
# Outline: as §1
# Neu5Ac(a2-6)Gal(b1-4)Glc = biological target: Neu5Ac(a2-6)Gal(b1-4)Glc
# Outline: as §1
# [36] = biological target: Neu5Ac(a2-6)Gal(b1-4)GlcNAc
# Outline: as §1
binder,measurement,setting,value
B1,glycan array binding signal (z-score),[1],-0.694
same,glycan array binding signal (z-score),[2],-0.081
same,glycan array binding signal (z-score),[3],-0.787
same,glycan array binding signal (z-score),[4],-0.311
same,glycan array binding signal (z-score),[5],-0.582
same,glycan array binding signal (z-score),[6],0.232
same,glycan array binding signal (z-score),[7],-0.719
same,glycan array binding signal (z-score),[8],-0.644
same,glycan array binding signal (z-score),[9],-0.202
same,glycan array binding signal (z-score),Neu5Ac(a2-3)Gal(b1-4)Glc,0.003
same,glycan array binding signal (z-score),[10],-0.187
same,glycan array binding signal (z-score),[11],0.121
same,glycan array binding signal (z-score),[12],-0.301
same,glycan array binding signal (z-score),[13],-0.613
same,glycan array binding signal (z-score),[14],-0.112
same,glycan array binding signal (z-score),[15],-0.121
same,glycan array binding signal (z-score),[16],-0.587
same,glycan array binding signal (z-score),[17],-0.225
same,glycan array binding signal (z-score),[18],1.09
same,glycan array binding signal (z-score),[19],-0.788
same,glycan array binding signal (z-score),[20],0.388
same,glycan array binding signal (z-score),[21],-0.689
same,glycan array binding signal (z-score),[22],-0.499
same,glycan array binding signal (z-score),[23],-0.763
same,glycan array binding signal (z-score),[24],-0.842
same,glycan array binding signal (z-score),[25],-0.323
same,glycan array binding signal (z-score),[26],-0.629
same,glycan array binding signal (z-score),[27],0.12
same,glycan array binding signal (z-score),[28],-0.767
same,glycan array binding signal (z-score),[29],1.05
same,glycan array binding signal (z-score),[30],-0.163
same,glycan array binding signal (z-score),Neu5Ac(a2-3)GalNAc,-0.639
same,glycan array binding signal (z-score),[31],2.18
same,glycan array binding signal (z-score),[32],-0.309
same,glycan array binding signal (z-score),[33],0.542
same,glycan array binding signal (z-score),[34],-0.509
same,glycan array binding signal (z-score),[35],0.68
same,glycan array binding signal (z-score),Neu5Ac(a2-6)Gal,5.85
same,glycan array binding signal (z-score),Neu5Ac(a2-6)Gal(b1-4)Glc,2.1
same,glycan array binding signal (z-score),[36],-0.746

# Reprinted at random: 2 entries already listed
binder,measurement,setting,value
B1,glycan array binding signal (z-score),[31],2.18
same,glycan array binding signal (z-score),[10],-0.187
